Reference: patent publication US11519017B2, “Kit for diagnosing infection with Methicillin-resistant Staphylococcus aureus (MRSA) by detecting magnesium ions” (Bioacts Corporation, priority 2017, dated 2022)

Assays:
mecA gene = assay: Detection of MRSA using loop-mediated isothermal amplification (LAMP), color change; parameters: species or system Methicillin-resistant Staphylococcus aureus; settings: 63° C. 30 minutes then 80° C. 5 minutes; FIG. 2
MRSA DNA = assay: Detection sensitivity test of MRSA using LAMP; parameters: species or system Methicillin-resistant Staphylococcus aureus; settings: for detectable amount of MRSA DNA (up to): visual color, FIG. 4; for ease of visual detection of the color change: visual observation

Structure (SMILES)	change in color development after LAMP (mecA gene)	detectable amount of MRSA DNA (up to) (MRSA DNA) [fg]	ease of visual detection of the color change (MRSA DNA)
O=[N+]([O-])c1ccc(O)c(N=Nc2cc(S(=O)(=O)O)c3ccccc3c2O)c1 [Chemical Formula 2]	changes in color development were observed	–	–
Nc1ccc2c(O)c(N=Nc3ccc([N+](=O)[O-])cc3O)c(S(=O)(=O)O)cc2c1 [Chemical Formula 3]	changes were not observed	–	–
O=[N+]([O-])c1cc(N=Nc2c(S(=O)(=O)O)cc3cc(Nc4ccccc4)ccc3c2O)c(O)c([N+](=O)[O-])c1 [Chemical Formula 4]	changes were not observed	–	–
CC1=NN(c2ccccc2)C(O)C1N=Nc1cc([N+](=O)[O-])cc(S(=O)(=O)O)c1O (stereo not shown) [Chemical Formula 5]	changes in color development were observed	100	errors in detection during visual observation were caused due to color change
O=[N+]([O-])c1cc(N=Nc2c(O)cccc2O)c(O)c(S(=O)(=O)O)c1 [Chemical Formula 6]	changes were not observed	–	–
O=[N+]([O-])c1cc(N=Nc2c(S(=O)(=O)O)cc3cc(Nc4ccccc4)ccc3c2O)c(O)c(S(=O)(=O)O)c1 [Chemical Formula 7]	changes in color development were observed	1e+09	easy to be visually detected due to a clear color change
O=[N+]([O-])c1cc(N=Nc2c(O)ccc3ccccc23)c(O)c([N+](=O)[O-])c1 [Chemical Formula 8]	changes were not observed	–	–
O=[N+]([O-])c1cc(S(=O)(=O)O)cc(N=Nc2cc(S(=O)(=O)[O-])c3ccccc3c2O)c1O.[Na+] [Chemical Formula 9]	changes in color development were observed	–	–
O=C(Nc1ccc(S(=O)(=O)O)c2cc(S(=O)(=O)O)c(N=Nc3cc([N+](=O)[O-])cc(S(=O)(=O)O)c3O)c(O)c12)c1ccccc1 [DKLS]	changes in color development were observed	–	–

Some compounds share one wording; it may come from a single statement.
